Source: patent publication EP4778539A1
Substitutions are numbered along the chain they refer to. Results are given in words; binding and its absence hold for the method and conditions named. Some entries that bind do so weakly or less than the wild type.

T1: mouse CAPRIN-1 on the cell membrane surface of mouse cancer cells (mouse) (UniProt Q60865)
T1 sequence (looked up): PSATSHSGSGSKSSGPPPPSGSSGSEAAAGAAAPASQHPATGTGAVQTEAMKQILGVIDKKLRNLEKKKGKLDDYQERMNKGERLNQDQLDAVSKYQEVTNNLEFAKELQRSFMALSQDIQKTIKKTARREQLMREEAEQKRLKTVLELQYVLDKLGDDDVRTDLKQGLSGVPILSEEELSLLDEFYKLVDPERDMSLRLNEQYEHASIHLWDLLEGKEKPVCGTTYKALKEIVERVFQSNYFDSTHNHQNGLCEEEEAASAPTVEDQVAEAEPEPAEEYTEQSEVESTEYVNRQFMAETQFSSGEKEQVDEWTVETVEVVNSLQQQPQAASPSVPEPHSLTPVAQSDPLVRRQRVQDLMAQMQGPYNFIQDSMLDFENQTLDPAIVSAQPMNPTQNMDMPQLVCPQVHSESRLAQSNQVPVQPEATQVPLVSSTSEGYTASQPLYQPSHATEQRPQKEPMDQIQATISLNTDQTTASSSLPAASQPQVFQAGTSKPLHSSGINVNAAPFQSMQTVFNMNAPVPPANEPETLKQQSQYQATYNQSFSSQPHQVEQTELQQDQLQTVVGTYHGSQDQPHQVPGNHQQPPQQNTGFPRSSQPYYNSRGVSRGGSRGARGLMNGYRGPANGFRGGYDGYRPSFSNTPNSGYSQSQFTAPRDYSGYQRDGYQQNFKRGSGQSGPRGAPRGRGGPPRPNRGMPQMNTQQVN

T2: human CAPRIN-1 on the cell membrane surface of human cancer cells (human) (UniProt Q14444)
T2 sequence (looked up): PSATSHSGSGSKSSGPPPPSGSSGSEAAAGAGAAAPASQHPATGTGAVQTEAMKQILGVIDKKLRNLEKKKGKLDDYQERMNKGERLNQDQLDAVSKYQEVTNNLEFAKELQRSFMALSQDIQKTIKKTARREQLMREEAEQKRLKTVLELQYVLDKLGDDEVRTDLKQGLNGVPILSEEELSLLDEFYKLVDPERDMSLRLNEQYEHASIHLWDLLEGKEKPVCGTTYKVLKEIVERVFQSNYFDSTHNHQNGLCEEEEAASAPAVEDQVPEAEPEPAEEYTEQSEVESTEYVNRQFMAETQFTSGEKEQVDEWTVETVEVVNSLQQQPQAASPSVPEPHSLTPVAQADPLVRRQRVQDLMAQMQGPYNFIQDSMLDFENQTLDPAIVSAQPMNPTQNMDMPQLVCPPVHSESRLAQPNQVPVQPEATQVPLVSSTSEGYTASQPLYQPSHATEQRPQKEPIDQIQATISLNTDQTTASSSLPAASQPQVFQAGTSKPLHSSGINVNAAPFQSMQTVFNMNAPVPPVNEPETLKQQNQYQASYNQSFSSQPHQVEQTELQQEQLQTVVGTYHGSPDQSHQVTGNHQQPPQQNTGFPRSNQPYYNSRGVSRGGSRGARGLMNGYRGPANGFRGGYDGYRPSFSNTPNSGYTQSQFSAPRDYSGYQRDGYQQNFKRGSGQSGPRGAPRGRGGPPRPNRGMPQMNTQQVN

B1: Fab complex #42 (Fab, V domains shown)
VH: AVTLDESGGGLQTPGGALSLVCKASGFTFSGYDMLWVRQAPGKGLEWVAGIGSTGGGTDYGAAVKGRATISRDNGQSTVRLQLNNLRAEDTATYYCAKVAGGCNSGYCRDSPGSIDAWGHGTEVIVS
VL: AVTQQPASVSANPGETVKITCSGGGSRNYYGWYQQKSPGSVPVTVIYYDDQRPSNIPSRFSGALSGSTSTLTITGVQADDEAVYFCGSADSNTYEGSFGAGTTLTVL
B2: Fab complex #47 (Fab, V domains shown)
VH: DAELVKPGASVKISCKASGYTFTDHSIHWVQQKPEQGLEWIGYISPGNGNIKYNEKFKGKATLTADKSSSTAYMQLNSLTSEDSAVYFCKRSLGRGGPYYFDYWGQGTTVTVSS
VL: DIVLTQAAPSLPVTPGESVSISCRSSKSLLHSNGNTYLYWFLQRPGQSPQLLIYRMSNLASGVPDRFSGSGSGTAFTLRISRVEAEDVGVYYCMQHREYPVTFGSGPN
B3: Fab complex #46 (Fab, V domains shown)
VH: GAELVRSGASVKMSCKASGYSFTDYNMYWVKQTPGQGLEWIGYIYPGNGGTNYNQKFKGKATLTADTSSSTAYMQISSLTSEDSAVYFCARDYDDGGYAMDYWGQGTTVTVSS
VL: DIQMTQSPASLSASVGETVTITCRASGNIHNYLTWYQQKQGKSPQLLVYNAKTLADGVPSRFSGSGSGTQYSLKINRLQPEDFGSYYCQHFWNIPWTFGGGTKLNSR
B4: Fab complex #38 (Fab, V domains shown)
VH: EVQLVESGGGLVQPGGSLRLSCAASGFSLSSHSLGWVRQAPGKGLEWIGDIRSGGSAYYANWAKGRFTISRDNSKNTLYLQMNSLRAEDTAVYYCTRTNGPSDLTNRLDLWGQGTLVTVSS
VL: EQVLTQSPSSLSASVGDRVTINCQASQSLYNNENLAWFQQKPGKVPKRLIYGASTLASGVSSRFSGSGSGTEFTLTISNLQPEDFAIYYCLGEFSCGSADCFAFGGGTKVEIK
B5: Fab complex #70 (Fab, V domains shown)
VH: B4 VH with Y94F
VL: QVLTQSPSSLSASVGDRVTINCQASQSLYNNENLAWFQQKPGKVPKRLIYGASTLASGVSSRFSGSGSGTEFTLTISSLQCEDFAIYYCLGEFSCGSADCFAFGGGTKVEIK
B6: Fab complex #41 (Fab, V domains shown)
VH: B4 VH with Y94F
VL: B4 VL
B7: Fab complex #69 (Fab, V domains shown)
VH: B4 VH
VL: B5 VL
B8: Fab complex #40 (Fab, V domains shown)
VH: B4 VH
VL: B4 VL with Q2I, I87T
B9: Fab complex #74 (Fab, V domains shown)
VH: B4 VH with Y94F
VL: B4 VL
B10: Fab complex #73 (Fab, V domains shown)
VH: B4 VH
VL: B4 VL with Q2I, I87T
B11: Fab complex #72 (Fab, V domains shown)
VH: B4 VH with Y94F
VL: B4 VL with Q2I, I87T
B12: Fab complex #39 (Fab, V domains shown)
VH: B4 VH with Y94F
VL: B4 VL with Q2I, I87T
B13: Fab complex #71 (Fab, V domains shown)
VH: B4 VH
VL: B4 VL
B14: Fab complex #63 (Fab, V domains shown)
VH: GPDLVKPGASVKISCKASGYSFTAYYMHWVKQSHGKSLEWIGRVNPNNGGTTYNQKFKGKAILTVDKSSSTAYMELRSLTFEDSAVYYCARRIYYGYFDYWGQGTTVTVSS
VL: AFFAVSLGQRATISCKASQSVDYDGDSYMNWYQQKPGQPPKLLIYVASNLESGVPARFSGSGSGTDFTLNIHPVEEEDAATYYCQQSNEDPYTFGGGTKLEIKQ

What follows are binders tested against T1, mouse CAPRIN-1 on the cell membrane surface of mouse cancer cells (mouse) (assay: flow cytometry, 4T1).

binding | Binder
binds | B1
binds | B2
binds | B3
binds | B4
binds | B5
binds | B6
binds | B7
binds | B8
binds | B9
binds | B10
binds | B11
binds | B12
binds | B13
binds | B14

The binders below were run against T2, human CAPRIN-1 on the cell membrane surface of human cancer cells (human) (assay: flow cytometry, human cancer cells).

binding | Binder
binds | B1
binds | B2
binds | B3
binds | B4
binds | B5
binds | B6
binds | B7
binds | B8
binds | B9
binds | B10
binds | B11
binds | B12
binds | B13
binds | B14

These binders were tested against T2, human CAPRIN-1 on the cell membrane surface of human cancer cells (human) (assay: flow cytometry, HT29).

binding | Binder
binds | B1
binds | B2
binds | B3
binds | B4
binds | B5
binds | B6
binds | B7
binds | B8
binds | B9
binds | B10
binds | B11
binds | B12
binds | B13
binds | B14

These binders were tested against T1, mouse CAPRIN-1 on the cell membrane surface of mouse cancer cells (mouse) (assay: flow cytometry, mouse cancer cells).

binding | Binder
binds | B1
binds | B2
binds | B3
binds | B4
binds | B5
binds | B6
binds | B7
binds | B8
binds | B9
binds | B10
binds | B11
binds | B12
binds | B13
binds | B14
